# In PMC10791743, “Selective CK1α degraders exert antiproliferative activity against a broad range of human cancer cell lines” (Nature Communications, 2024):
# Experiment: Bioinformatic analysis of Oncolines IC50 values (genomics, gene expression, dependency, reference agents)
# Design: species or system human
compound,measurement,setting,value
O=C1CCC(N2Cc3cc(Nc4noc5ccccc45)ccc3C2=O)C(=O)N1 (stereo not drawn) [SJ3149],"10log IC50 ratio, TP53 missense position vs other positions",K132,-3.41
same,"10log IC50 ratio, TP53 missense position vs other positions",P309,0.63
same,"10log IC50 ratio, TP53 missense position vs other positions",R175,-0.58
same,"10log IC50 ratio, TP53 missense position vs other positions",R248,0.40
same,"10log IC50 ratio, TP53 missense position vs other positions",R273,0.71
same,"10log IC50 ratio, TP53 missense position vs other positions",R280,0.60
same,10log IC50 ratio altered/wild-type,gene ABL-driven,-1.62
same,10log IC50 ratio altered/wild-type,gene APC,0.40
same,10log IC50 ratio altered/wild-type,gene ARID1A,0.14
same,10log IC50 ratio altered/wild-type,gene ATM,-0.71
same,10log IC50 ratio altered/wild-type,gene BRAF,0.28
same,10log IC50 ratio altered/wild-type,gene BRCA2,-0.50
same,10log IC50 ratio altered/wild-type,gene CCND1,1.06
same,10log IC50 ratio altered/wild-type,gene CCNE1,0.0542
same,10log IC50 ratio altered/wild-type,gene CDKN2A,0.00723
same,10log IC50 ratio altered/wild-type,gene CHD4,0.09
same,10log IC50 ratio altered/wild-type,gene CREBBP,0.29
same,10log IC50 ratio altered/wild-type,gene CTNNB1,-1.05
same,10log IC50 ratio altered/wild-type,gene EGFR,-1.22
same,10log IC50 ratio altered/wild-type,gene EP300,0.09
same,10log IC50 ratio altered/wild-type,gene ERBB2,1.04
same,10log IC50 ratio altered/wild-type,gene FAT1,0.68
same,10log IC50 ratio altered/wild-type,gene FBXW7,-0.10
same,10log IC50 ratio altered/wild-type,gene KRAS,0.31
same,10log IC50 ratio altered/wild-type,gene LRP1B,1.11
same,10log IC50 ratio altered/wild-type,gene MYC,1.14
same,10log IC50 ratio altered/wild-type,gene NCOR1,0.55
same,10log IC50 ratio altered/wild-type,gene NF1,0.16
same,10log IC50 ratio altered/wild-type,gene NOTCH1,-0.22
same,10log IC50 ratio altered/wild-type,gene NRAS,-0.14
same,10log IC50 ratio altered/wild-type,gene NSD1,0.67
same,10log IC50 ratio altered/wild-type,gene PBRM1,-0.32
same,10log IC50 ratio altered/wild-type,gene PIK3CA,0.37
same,10log IC50 ratio altered/wild-type,gene PIK3R1,0.0148
same,10log IC50 ratio altered/wild-type,gene PTEN,0.28
same,10log IC50 ratio altered/wild-type,gene RB1,-0.69
same,10log IC50 ratio altered/wild-type,gene SETD2,-0.58
same,10log IC50 ratio altered/wild-type,gene SMAD4,0.90
same,10log IC50 ratio altered/wild-type,gene SMARCA4,-0.67
same,10log IC50 ratio altered/wild-type,gene SPEN,-1.70
same,10log IC50 ratio altered/wild-type,gene STK11,0.35
same,10log IC50 ratio altered/wild-type,gene TP53,1.33
same,10log IC50 ratio altered/wild-type,gene XIRP2,0.69
same,10log IC50 ratio altered/wild-type,gene ZFHX3,-0.56
same,Average IC50 in TP53-altered vs TP53 wild-type cell lines,higher in TP53-altered,21 fold
